Measured values published in the supplement of paper PMC10373366.
Where a name gives a salt, the structure may show the parent alone. Some of the results follow. Most values come without repeats; read them as rough.

test system: A2780; test: cell growth inhibition ratio vs untreated control (CCK8); higher = stronger inhibition of cell viability; details: 10 µM; 48 h
Protocol: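 Natural product library (Topscience) screened at 10 µM final concentration for 48 h on ovarian cancer A2780 cells and patient-derived ovarian cancer cells (PDC) in 96-well plates; viability read by CCK8 and reported as inhibition ratio (%) relative to untreated control. Single-dose primary screen.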

| Structure (SMILES) | cell growth inhibition ratio [%] |
| --- | --- |
| CC1=CC(=O)c2c(O)cccc2C1=O [Plumbagin] | 6.26 |
| CN1[C@@H]2C[C@@H](OC(=O)[C@H](CO)c3ccccc3)C[C@H]1[C@@H]1O[C@@H]12 [Scopolamine HBr] | -1.09 |
| COc1ccc(CC2NCCc3cc(OC)c(OC)cc32)cc1OC (stereo not given) [Tetrahydropapaverine hydrochloride] | 12.6 |
| COc1ccc(C=Cc2cc(OC)cc(OC)c2)cc1 [3,5,4'-Trimethoxystilbene] | 9.42 |
| CC(C)c1ccc2c(c1O)CC[C@H]1C3=C(CC[C@]21C)C(=O)OC3 [Triptophenolide] | 5.44 |
| CC(C)(C)[C@]1(O)CC2OC(=O)CC23C(=O)OC2OC(=O)[C@H](O)C231 (stereo not given in full) [Bilobalide] | 19.9 |
| COc1ccc2c(c1OC)CN1CCc3cc4c(cc3C1C2)OCO4 (stereo not given) [Tetrahydroberberine THB] | 0.484 |
| C[C@]12C=CC(=O)C=C1CC[C@@H]1[C@@H]2CC[C@@]2(C)[C@H]1CC[C@]2(C)O [Methandrostenolone] | 2.28 |
| C[C@H]1CC(=O)C[C@@H]2CC[C@H]3[C@@H]4CC[C@H](O)[C@@]4(C)CC[C@@H]3[C@]21C [Mesterolone] | 13.3 |
| C[C@@H]1C[C@@H]([C@H](O)CC2CC(=O)NC(=O)C2)C(=O)[C@@H](C)C1 [Actidione] | 80 |
| C#C[C@]1(O)CC[C@H]2[C@@H]3CCC4=CC(=O)CC[C@]4(C)[C@H]3CC[C@@]21C [Ethisterone] | 2.44 |
| C=C[C@@H]1C2=CCOC(=O)C2=CO[C@H]1O[C@@H]1O[C@H](CO)[C@@H](O)[C@H](O)[C@H]1O [Gentiopicrin] | 8.87 |
| COc1cc(C2OCC3C(c4cc(OC)c(O[C@@H]5O[C@H](CO)[C@@H](O)[C@H](O)[C@H]5O)c(OC)c4)OCC23)cc(OC)c1O[C@H]1O[C@@H](CO)[C@H](O)[C@@H](O)[C@@H]1O (stereo not given in full) [Eleutheroside E] | -1.04 |
| COc1ccc2c(c[n+](C)c3c4cc5c(cc4ccc23)OCO5)c1OC [Chelerythrine chloride] | 92.5 |
| Cc1cc2c(C(C)C)c(O)c(O)c(C=O)c2c(O)c1-c1c(C)cc2c(C(C)C)c(O)c(O)c(C=O)c2c1O [Gossypol acetic acid] | 93.4 |
| S=C=NCc1ccccc1 [Benzyl isothiocyanate] | 37 |
| COc1cc([C@@H]2c3cc4c(cc3[C@H](O)[C@H]3COC(=O)[C@H]23)OCO4)cc(OC)c1OC [Podophyllotoxin] | 88.3 |
| Cc1nccc2c1[nH]c1ccccc12 [Harmane] | 20.1 |
| C/C=C/C#CC#C/C=C/c1ccco1 [Atractylodin] | -6.71 |
| CC(=O)O[C@H]1CC[C@H]2[C@@H]3CCC4=CC(=O)CCC4=C3C=C[C@]12C [Trenbolone acetate] | -36.6 |

| Structure (SMILES) | cell growth inhibition ratio [%] |
| --- | --- |
| C[C@]12CCC(=O)C=C1CC[C@@H]1[C@@H]2CC[C@@]2(C)[C@H]1CC[C@]2(C)O [17-Methyltestosterone] | 17.6 |
| CCC1=C[C@H]2CN3CCc4c([nH]c5ccccc45)[C@](C(=O)OC)(C2)[C@H]13 [Catharanthine] | -1.28 |
| CNC(=O)Oc1ccc2c(c1)[C@]1(C)CCN(C)[C@@H]1N2C [Physostigmine Salicylate] | 31.5 |
| CC1C=CC=CCCC=CC=CC=CC=CC(OC2OC(C)C(O)C(N)C2O)CC2OC(O)(CC(O)C(O)CCC(O)CC(O)CC(O)CC(=O)OC(C)C(C)C1O)CC(O)C2C(=O)O (stereo not given) [Nystatin (Fungicidin)] | 4.33 |
| CC(C)=CCC[C@]1(C)C=Cc2c(O)c3c(c(CC=C(C)C)c2O1)O[C@]12C(=C[C@@H]4C[C@H]1C(C)(C)O[C@@]2(C/C=C(/C)C(=O)O)C4=O)C3=O [Gambogic Acid] | 7.37 |
| CC(=O)OC(C)(C)/C=C/C(=O)[C@](C)(O)[C@H]1[C@H](O)C[C@@]2(C)[C@@H]3CC=C4[C@H](C[C@H](O)C(=O)C4(C)C)[C@]3(C)C(=O)C[C@]12C [Cucurbitacin B] | 89.9 |
| CC[C@]12C=CCN3CC[C@]4(C(=C(C(=O)OC)C1)Nc1ccccc14)[C@@H]32 [Tabersonine] | 29.3 |
| CC1=C(O)C(=O)C=C2C1=CC=C1[C@@]2(C)CC[C@@]2(C)[C@@H]3C[C@](C)(C(=O)O)CC[C@]3(C)CC[C@]12C [Celastrol] | 0.5 |
| CC(=O)O[C@H]1[C@H]2O[C@]23[C@@H]2CC[C@@H]4C[C@@H](O)CC[C@]4(C)[C@H]2CC[C@]3(C)[C@H]1c1ccc(=O)oc1 [Cinobufagin] | 88.9 |
| O=C(O)C1C2CCC(O2)C1C(=O)O (stereo not given) [Sodium Demethylcantharidate] | -4.95 |
| C[C@H]1O[C@H](O[C@H]2[C@H](O)[C@@H](O)[C@@H](O)[C@H](O)[C@@H]2O)[C@@H](N)C[C@@H]1NC(=N)C(=O)O [Kasugamycin hydrochloride] | 17.6 |
| Cc1c2ccncc2c(C)c2c1[nH]c1ccccc12 [Ellipticine] | 73.8 |
| COc1cccc(C=O)c1OC [o-Veratraldehyde] | 1.3 |
| C=CCCCCCCCCC(=O)O[C@H]1CC[C@H]2[C@@H]3CCC4=CC(=O)C=C[C@]4(C)[C@H]3CC[C@]12C [Boldenone Undecylenate] | 5.82 |
| NCC(O)c1ccc(O)cc1 (stereo not given) [Octopamine hydrochloride] | 11.7 |
| COc1cc2c(c(OC)c1OC)-c1ccc(OC)c(=O)cc1[C@@H](NC(C)=O)CC2 [Colchicine] | 87.7 |
| N#CCCN [3-Aminopropionitrile fumarate] | -3.43 |
| CCC1=C[C@@H]2CN3CCc4c([nH]c5ccccc45)[C@@](C(=O)OC)(C2)[C@@H]13 [Catharanthine tartrate] | 7.54 |
| O=C(O)CC[N+](=O)[O-] [Bovinocidin] | 1.17 |
| COc1ccc2c3c([nH]c2c1)C(C)=NCC3 [Harmaline] | 7.08 |

Entries listed so far containing a carbonyl joined to an NH by a bond outside any ring (2):

| Structure (SMILES) | cell growth inhibition ratio [%] |
| --- | --- |
| CNC(=O)Oc1ccc2c(c1)[C@]1(C)CCN(C)[C@@H]1N2C [Physostigmine Salicylate] | 31.5 |
| COc1cc2c(c(OC)c1OC)-c1ccc(OC)c(=O)cc1[C@@H](NC(C)=O)CC2 [Colchicine] | 87.7 |
